These are yes or no findings as the source states them, for the method shown. In cells and extracts the contact can be indirect. Some binding calls cover weakened binding; strength is not graded here.
Columns and labels:
[1] = target: GFP-myoVa-IQ1 (aa742-791); test: co-IP
MyoVb(1-1090)-GFP-FRB = MyoVb(1-1090)-GFP-FRB (UniProt P21271); test: co-IP
[2] = target: GFP-myoVa-IQ1 (aa742-791); test: pull-down

Sequences of proteins named here, by UniProt entry; tags and fusion partners are left off. Residues count along the entry.
UniProt P21271, residues 1-1090: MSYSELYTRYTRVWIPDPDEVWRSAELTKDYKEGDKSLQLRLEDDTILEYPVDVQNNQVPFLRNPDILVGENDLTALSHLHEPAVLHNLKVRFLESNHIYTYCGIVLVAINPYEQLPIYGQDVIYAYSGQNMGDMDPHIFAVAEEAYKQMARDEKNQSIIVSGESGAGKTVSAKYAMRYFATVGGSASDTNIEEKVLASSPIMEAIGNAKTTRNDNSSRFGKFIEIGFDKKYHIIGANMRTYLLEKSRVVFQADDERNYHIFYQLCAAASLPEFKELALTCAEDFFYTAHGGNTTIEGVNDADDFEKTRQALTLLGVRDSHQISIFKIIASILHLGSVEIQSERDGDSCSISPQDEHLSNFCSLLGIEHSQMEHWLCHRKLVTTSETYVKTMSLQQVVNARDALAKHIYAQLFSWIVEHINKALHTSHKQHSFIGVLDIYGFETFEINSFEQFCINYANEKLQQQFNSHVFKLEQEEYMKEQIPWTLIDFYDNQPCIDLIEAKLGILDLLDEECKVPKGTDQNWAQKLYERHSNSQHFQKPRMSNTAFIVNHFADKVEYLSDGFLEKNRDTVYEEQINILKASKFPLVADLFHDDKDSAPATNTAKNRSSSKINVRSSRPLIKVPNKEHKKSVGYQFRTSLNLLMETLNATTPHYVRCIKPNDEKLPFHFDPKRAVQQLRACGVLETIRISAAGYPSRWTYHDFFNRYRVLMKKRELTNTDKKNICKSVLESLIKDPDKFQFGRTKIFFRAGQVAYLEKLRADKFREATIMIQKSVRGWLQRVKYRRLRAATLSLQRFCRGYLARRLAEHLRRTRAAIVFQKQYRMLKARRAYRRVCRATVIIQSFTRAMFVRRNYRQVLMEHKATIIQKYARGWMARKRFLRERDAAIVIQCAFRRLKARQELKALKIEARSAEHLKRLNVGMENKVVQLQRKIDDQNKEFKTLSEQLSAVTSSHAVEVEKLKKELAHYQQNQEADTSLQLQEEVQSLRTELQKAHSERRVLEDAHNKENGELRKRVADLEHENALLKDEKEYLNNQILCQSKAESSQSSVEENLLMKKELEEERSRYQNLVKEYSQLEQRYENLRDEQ
UniProt O88751: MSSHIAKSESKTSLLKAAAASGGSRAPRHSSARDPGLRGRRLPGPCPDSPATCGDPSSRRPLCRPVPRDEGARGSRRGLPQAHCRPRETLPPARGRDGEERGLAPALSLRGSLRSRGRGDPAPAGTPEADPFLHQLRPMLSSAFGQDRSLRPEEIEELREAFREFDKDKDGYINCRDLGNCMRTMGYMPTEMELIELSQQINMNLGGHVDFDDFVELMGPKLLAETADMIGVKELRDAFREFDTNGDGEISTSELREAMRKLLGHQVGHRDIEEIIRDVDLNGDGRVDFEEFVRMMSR

- binding [1]: binds
- binding (MyoVb(1-1090)-GFP-FRB): binds
- binding [2]: binds
Substance: full-length, tagRFP-coupled caldendrin (from UniProt O88751 1-298)

— publication doi:10.1101/2020.08.14.250746
